Data on one substance can be found in publication PMC8790522.

Chains of the proteins cited; added tags and fusions are not shown.
UniProt Q04695: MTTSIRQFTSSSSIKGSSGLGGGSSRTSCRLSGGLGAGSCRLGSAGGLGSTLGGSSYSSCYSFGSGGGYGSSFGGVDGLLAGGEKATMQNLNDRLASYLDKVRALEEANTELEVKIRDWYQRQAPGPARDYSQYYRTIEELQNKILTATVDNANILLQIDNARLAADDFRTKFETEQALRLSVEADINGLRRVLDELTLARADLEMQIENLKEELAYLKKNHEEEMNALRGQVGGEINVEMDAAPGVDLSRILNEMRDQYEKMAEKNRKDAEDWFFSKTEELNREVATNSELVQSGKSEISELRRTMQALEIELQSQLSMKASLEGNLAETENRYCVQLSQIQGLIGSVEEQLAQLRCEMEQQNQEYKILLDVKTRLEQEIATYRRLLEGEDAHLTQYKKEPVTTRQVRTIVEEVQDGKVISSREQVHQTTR
UniProt P37231: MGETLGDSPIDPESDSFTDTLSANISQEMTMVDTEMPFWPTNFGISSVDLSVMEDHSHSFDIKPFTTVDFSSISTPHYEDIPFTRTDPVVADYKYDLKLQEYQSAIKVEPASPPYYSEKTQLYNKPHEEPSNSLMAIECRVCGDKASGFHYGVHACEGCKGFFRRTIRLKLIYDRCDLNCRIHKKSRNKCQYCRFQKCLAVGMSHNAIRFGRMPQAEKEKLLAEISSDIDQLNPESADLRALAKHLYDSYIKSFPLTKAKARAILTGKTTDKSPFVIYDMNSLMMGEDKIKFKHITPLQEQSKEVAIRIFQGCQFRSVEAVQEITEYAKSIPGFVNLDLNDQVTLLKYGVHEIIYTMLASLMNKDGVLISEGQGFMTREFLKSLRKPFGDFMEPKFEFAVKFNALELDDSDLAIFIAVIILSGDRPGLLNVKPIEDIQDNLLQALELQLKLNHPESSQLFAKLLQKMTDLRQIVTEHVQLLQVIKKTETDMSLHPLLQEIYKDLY

Results are given in words; binding and its absence hold for the method and conditions named. In cells and extracts the contact can be indirect. Some binding calls cover weakened binding; strength is not graded here.

The target in the assay is Keratin 17 (human (endogenous in HaCaT)) (UniProt Q04695). Briefly: co-IP; whole-cell lysates of treated HaCaT cells incubated with anti-K17 (sc-393002) or anti-IgG antibody for 3 h, then with Protein A/G PLUS-Agarose at 4°C overnight; four PBS washes; SREBP-1 and PPARγ detected by Western blot.

As to “Peroxisome proliferator-activated receptor gamma (from UniProt P37231 1-505)”, the binding entry is reported as “binds”.
